Structures can show the parent of a compound that is named as a salt. The list shows a part of the results. This data set is noisy: repeats of one test often differ as much as different tests do.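 The human kidney-derived cells carry a stably integrated construct of eight TEAD-binding elements driving luciferase, read by luminescence in a drug-repurposing library screen. A compound counts as a hit when its signal is more than five robust Z scores above the plate mean.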
System: HEK293A TEAD-LUC reporter
Test: TEAD-luciferase reporter activity (YAP activation), robust Z score vs plate; higher = stronger YAP/TEAD activation
Conditions: 24 h

Row | Compound | TEAD-luciferase reporter activity (compound concentration: 200 nM) | TEAD-luciferase reporter activity (compound concentration: 2 uM) | TEAD-luciferase reporter activity (compound concentration: 10 uM)
1 | CCCC(=O)C1=C(Nc2ccccc2)CC(C)(C)C(C(=O)OC)C1=O (stereo unspecified) | inactive: 0.996 | inactive: -1.87 | inactive: 0.0507
2 | COc1cc(NCCCCCCCN)c2ncccc2c1 | inactive: 0.218 | inactive: -2.49 | inactive: -3.42
3 | Nc1ccc(/N=N/c2ccccc2)c(N)n1 [phenazopyridine hydrochloride] | inactive: -0.211 | inactive: -0.792 | inactive: 2.79
4 | CC(C)(C)CC(=O)OCC(=O)[C@@]1(O)CC[C@H]2[C@@H]3CCC4=CC(=O)C=CC4(C)[C@H]3[C@@H](O)CC21C (stereo partly specified) | inactive: 4.46 | inactive: 0.574 | inactive: -0.593
5 | CCOC(=O)[C@H](CCc1ccccc1)CC1(C(=O)N[C@H]2CCc3ccccc3N(CC(=O)O)C2=O)CCCC1 [Daglutril] | inactive: -1.75 | inactive: -0.378 | inactive: 2.73
6 | Nc1n[n+](-c2ccc(Cl)c(Cl)c2)no1 | inactive: -0.539 | inactive: 0.255 | active: 5.54
7 | O=C(c1ccc(Cl)cc1)n1cc(Cc2nnn[nH]2)c2ccccc21 | inactive: -1.65 | inactive: -1.49 | inactive: 1.02
8 | OCCN1CCN(CC/C=C2/c3ccccc3Sc3ccc(Cl)cc32)CC1 [zuclopenthixol] | inactive: -0.515 | inactive: -1.03 | inactive: 0.836
9 | C=C(C)C1CC=C(C)CC1 [D-Limonene] | inactive: -0.911 | inactive: -1.67 | inactive: -1.18
10 | NS(=O)(=O)c1cc2c(cc1Cl)CN(C1CCCCC1)C2=O | inactive: -0.0108 | inactive: 4.42 | inactive: -1.95
11 | COCC(=O)NC1CCN(c2ccc3ncc(-c4cccc(C(F)(F)F)c4)n3n2)CC1 | inactive: -2.85 |  | inactive: -0.811
12 | COc1cc(/C=C/c2ccc(O)cc2)cc(OC)c1 [Pterostilbene] | inactive: 2.89 | inactive: 2.67 | inactive: 0.803
13 | COc1ccc2c(c1)c(CC(=O)NC(C=O)C(O)C(O)C(O)CO)c(C)n2C(=O)c1ccc(Cl)cc1 (stereo unspecified) | inactive: -0.939 | inactive: 0.503 | inactive: -1.05
14 | CC(OC(=O)c1ccc(Cc2c(O)c3ccccc3oc2=O)cc1)(C(F)(F)F)C(F)(F)F | inactive: -1.15 | inactive: -0.172 | inactive: -0.163
15 | CO[C@H]1CCC[C@H]2C1=C(C(=O)OCc1ccccc1)N1C(=O)[C@H]([C@@H](C)O)[C@@H]21 | inactive: -1.97 |  | inactive: 0.358
16 | Cc1ccc(S(=O)(=O)NC(=O)NC2CCCCCCC2)cc1 | inactive: 0.00822 | inactive: -0.696 | inactive: 0.709

Sorted by count of non-hydrogen atoms (low to high): part of the list above.
Row | Compound | TEAD-luciferase reporter activity (compound concentration: 200 nM) | TEAD-luciferase reporter activity (compound concentration: 2 uM) | TEAD-luciferase reporter activity (compound concentration: 10 uM)
6 | Nc1n[n+](-c2ccc(Cl)c(Cl)c2)no1 | inactive: -0.539 | inactive: 0.255 | active: 5.54
3 | Nc1ccc(/N=N/c2ccccc2)c(N)n1 [phenazopyridine hydrochloride] | inactive: -0.211 | inactive: -0.792 | inactive: 2.79
10 | NS(=O)(=O)c1cc2c(cc1Cl)CN(C1CCCCC1)C2=O | inactive: -0.0108 | inactive: 4.42 | inactive: -1.95
16 | Cc1ccc(S(=O)(=O)NC(=O)NC2CCCCCCC2)cc1 | inactive: 0.00822 | inactive: -0.696 | inactive: 0.709
8 | OCCN1CCN(CC/C=C2/c3ccccc3Sc3ccc(Cl)cc32)CC1 [zuclopenthixol] | inactive: -0.515 | inactive: -1.03 | inactive: 0.836
